The source of these data is article PMC13189625.

Sequences of proteins named here, by UniProt entry; tags and fusion partners are left off.
UniProt O54851: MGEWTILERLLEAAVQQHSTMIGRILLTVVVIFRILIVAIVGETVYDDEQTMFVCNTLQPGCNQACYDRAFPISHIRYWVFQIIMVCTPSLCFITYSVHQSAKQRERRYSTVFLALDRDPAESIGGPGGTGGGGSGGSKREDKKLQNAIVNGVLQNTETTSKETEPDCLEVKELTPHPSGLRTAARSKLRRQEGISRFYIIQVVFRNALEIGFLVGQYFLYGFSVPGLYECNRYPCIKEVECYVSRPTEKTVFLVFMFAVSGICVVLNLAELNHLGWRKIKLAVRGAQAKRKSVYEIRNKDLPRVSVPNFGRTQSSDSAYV

Results are given in words; binding and its absence hold for the method and conditions named. In cells and extracts the contact can be indirect. Here binding means that the protein was enriched with, or labelled near, the bait; the list need not be complete. Where a sequence is shown, tags or fusion partners need not be part of it.

The test deals with Cx36-EGFP (mouse) (UniProt O54851). The experiment in a line: proximity labelling; GFP-directed TurboID in vivo: AAV HKamac_V5-TurboID-dGBP injected intravitreally into Cx36-EGFP mice (AII amacrine cells); 5 mM biotin subcutaneously on 4 days; 17 retinas a condition; streptavidin pull-down and LC/MS/MS; compared with injected wild-type mice, SAINT; done twice.

B1: Sec22b (mouse retina) (protein, UniProt O08547 1-215)
chain: MVLLTMIARVADGLPLAASMQEDEQSGRDLQQYQSQAKQLFRKLNEQSPTRCTLEAGAMTFHYIIEQGVCYLVLCEAAFPKKLAFAYLEDLHSEFDEQHGKKVPTVSRPYSFIEFDTFIQKTKKLYIDSRARRNLGSINTELQDVQRIMVANIEEVLQRGEALSALDSKANNLSSLSKKYRQDAKYLNMRSTYAKLAAVAVFFIMLIVYVRFWWL
B1: the binding entry was “binds”.

B2: G-protein-regulated inducer of neurite outgrowth 1 (protein, UniProt Q3UNH4 1-932)
chain: MRDCCSSPKAIPAPPRHALDQSLGMDPRHTSSSGAAEGASCSERPAGSLACPSPNCSPLPETPRAHGALTSDNSGTTLFGKPEPMSSAEATPTASEIRNPVFSGKMDGNSLKQADSTSTRKEEAGSLRNEESMLKGKAEPMIYGKGEPGTVGRVDCTASGAENSGSLGKVDMPCSSKVDIVSPGGDNAGSLRKVETISSGKMDPKTENVMHSRRERPGSTGEGDLVSLRENDMKPPDNTDSASTKKTDPEFSGKLTPGSSGKTELVSSVTVAPVTSENVNPVCSGGAGPAAVGNSETLSSVKKDPQLLGKKEAVSSGEGGSVSVRMAETVSARQPEGMFPAKTDSTSSNSTGPSGRADPVSLRNSELVSPVKPERLSSGQAERVSLVKTETLSSGKEDPRSSRRVDHTTVTGNMQTSQKGNPESSGKTDLGSSSSGDTRSLGTWGSLSAAKAEVTEGKGDPQPWKKASLPASEKTDPLASSKAGSASQGKAETVSPGEVDAMTLGKTVPTSSGKTALVSPGKVDLMTSERAEGIPELQASEKGNPVNSTRVDTGATGSTEPKSGVKVITQIPGATSPGKVETPSLQKEQPQLSEKTDPSRKVDPPTTVEPVSLGKADSASPSPRKAESQTSAKTVPQAPDKATSSLRQSDGTPYSSAQPQRDTRSIGSLPEREPSASTSQKDLAAAAAQKSPSAEAAAPPPGPRTRDNFTKAPSWDAGAPPPREDAGTQAGAQACVSVAVSPMSPQDGAGGPAFSFQAAPRAPSPAPRPPSRRDAGLQVSLGAAETRSVATGPMTPQAAAPPAVPPVFPEVRVRPGSVLAAALAPQEATEPVRDVSWDEKGMTWEVYGASMEVEVLGMAIQKHLERQIEEHGRQGAPAPAPPPAVRAGPGRAGSVRTAPAEGAAKRPPGLFRALLQSVRRPRCCSRAGPTAE
With B2, the binding result was “binds”.

B3: Reticulon4 (protein, UniProt Q99P72 1-1162)
chain: MEDIDQSSLVSSSADSPPRPPPAFKYQFVTEPEDEEDEEDEEEEEDDEDLEELEVLERKPAAGLSAAPVPPAAAPLLDFSSDSVPPAPRGPLPAAPPTAPERQPSWERSPAASAPSLPPAAAVLPSKLPEDDEPPARPPAPAGASPLAEPAAPPSTPAAPKRRGSGSVDETLFALPAASEPVIPSSAEKIMDLKEQPGNTVSSGQEDFPSVLFETAASLPSLSPLSTVSFKEHGYLGNLSAVASTEGTIEETLNEASRELPERATNPFVNRESAEFSVLEYSEMGSSFNGSPKGESAMLVENTKEEVIVRSKDKEDLVCSAALHNPQESPATLTKVVKEDGVMSPEKTMDIFNEMKMSVVAPVREEYADFKPFEQAWEVKDTYEGSRDVLAARANMESKVDKKCFEDSLEQKGHGKDSESRNENASFPRTPELVKDGSRAYITCDSFSSATESTAANIFPVLEDHTSENKTDEKKIEERKAQIITEKTSPKTSNPFLVAIHDSEADYVTTDNLSKVTEAVVATMPEGLTPDLVQEACESELNEATGTKIAYETKVDLVQTSEAIQESIYPTAQLCPSFEEAEATPSPVLPDIVMEAPLNSLLPSTGASVAQPSASPLEVPSPVSYDGIKLEPENPPPYEEAMSVALKTSDSKEEIKEPESFNAAAQEAEAPYISIACDLIKETKLSTEPSPEFSNYSEIAKFEKSVPDHCELVDDSSPESEPVDLFSDDSIPEVPQTQEEAVMLMKESLTEVSETVTQHKHKERLSASPQEVGKPYLESFQPNLHITKDAASNEIPTLTKKETISLQMEEFNTAIYSNDDLLSSKEDKMKESETFSDSSPIEIIDEFPTFVSAKDDSPKEYTDLEVSNKSEIANVQSGANSLPCSELPCDLSFKNTYPKDEAHVSDEFSKSRSSVSKVPLLLPNVSALESQIEMGNIVKPKVLTKEAEEKLPSDTEKEDRSLTAVLSAELNKTSVVDLLYWRDIKKTGVVFGASLFLLLSLTVFSIVSVTAYIALALLSVTISFRIYKGVIQAIQKSDEGHPFRAYLESEVAISEELVQKYSNSALGHVNSTIKELRRLFLVDDLVDSLKFAVLMWVFTYVGALFNGLTLLILALISLFSIPVIYERHQAQIDHYLGLANKSVKDAMAKIQAKIPGLKRKAE
Take B3: the binding entry was “binds”.

B4: Shank2 (protein, UniProt Q80Z38 1-1476)
chain: MKSLLNAFTKKEVPFREAPAYSNRRRRPPNTLAAPRVLLRSNSDNNLNAGAPEWAVCSAATSHRSLSPQLLQQTPSKPDGATKSLGSYTPGPRSRSPSLNRLGGTAEDGKRTQPHWHVGSPFTPGANKDSLSTFEYPGPRRKLYSAVPGRLFVAVKPYQPQVDGEIPLHRGDRVKVLSIGEGGFWEGSARGHIGWFPAECVEEVQCKPRDSQAETRADRSKKLFRHYTVGSYDSFDAASDCIIEDKTVVLQKKDNEGFGFVLRGAKADTPIEEFTPTPAFPALQYLESVDEGGVAWQAGLRTGDFLIEVNNENVVKVGHRQVVNMIRQGGNHLILKVVTVTRNLDPDDTARKKAPPPPKRAPTTALTLRSKSMTAELEELGLSLVDKASVRKKKDKPEEIVPASKPSRTAENVAIESRVATIKQRPTSRCFPAASDVNSVYERQGIAVMTPTVPGSPKGPFLGLPRGTMRRQKSIDSRIFLSGITEEERQFLAPPMLKFTRSLSMPDTSEDIPPPPQSVPPSPPPPSPTTYNCPRSPTPRVYGTIKPAFNQNPVVAKVPPATRSDTVATMMREKGMFYRRELDRFSLDSEDVYSRSPAPQAAFRTKRGQMPENPYSEVGKIASKAVYVPAKPARRKGVLVKQSNVEDSPEKTCSIPIPTIIVKEPSTSSSGKSSQGSSMEIDPQATEPGQLRPDDSLTVSSPFAAAIAGAVRDREKRLEARRNSPAFLSTDLGDEDVGLGPPAPRMQASKFPEEGGFGDEDETEQPLLPTPGAAPRELENHFLGGGEAGAQGEAGGPLSSTSKAKGPESGPAAPLKSSSPAGPENYVHPLTGRLLDPSSPLALALSARDRAMQESQQGHKGEAPKADLNKPLYIDTKMRPSVESGFPPVTRQNTRGPLRRQETENKYETDLGKDRRADDKKNMLINIVDTAQQKSAGLLMVHTVDVPMAGPPLEEEEDREDGDTKPDHSPSTVPEGVPKTEGALQISAAPEPAVAPGRTIVAAGSVEEAVILPFRIPPPPLASVDLDEDFLFTEPLPPPLEFANSFDIPDDRAASVPALADLVKQKKNDTSQPPTLNSSQPANSTDSKKPAGISNCLPSSFLPPPESFDAVTDSGIEEVDSRSSSDHHLETTSTISTVSSISTLSSEGGESMDTCTVYADGQAFVVDKPPVPPKPKMKPIVHKSNALYQDTLPEEDTDGFVIPPPAPPPPPGSAQAGVAKVIQPRTSKLWGDVPEVKSPILSGPKANVISELNSILQQMNRGKSVKPGEGLELPVGAKSANLAPRSPEVMSTVSGTRSTTVTFTVRPGTSQPITLQSRPPDYESRTSGPRRAPSPVVSPTELSKEILPTPPPPSATAASPSPTLSDVFSLPSQSPAGDLFGLNPAGRSRSPSPSILQQPISNKPFTTKPVHLWTKPDVADWLESLNLGEHKETFMDNEIDGSHLPNLQKEDLIDLGVTRVGHRMNIERALKQLLDR
As to B4, the binding result is reported as “binds”.

B5: Adenylyl cyclase-associated protein1 (protein, UniProt P40124 1-474)
chain: MADMQNLVERLERAVGRLEAVSHTSDMHCGYGDSPSKGAVPYVQAFDSLLANPVAEYLKMSKEIGGDVQKHAEMVHTGLKLERALLATASQCQQPAGNKLSDLLAPISEQIQEVITFREKNRGSKFFNHLSAVSESIQALGWVALAAKPGPFVKEMNDAAMFYTNRVLKEYRDVDKKHVDWVRAYLSIWTELQAYIKEFHTTGLAWSKTGPVAKELSGLPSGPSVGSGPPPPPPGPPPPPISTSSGSDDSASRSALFAQINQGESITHALKHVSDDMKTHKNPALKAQSGPVRSGPKPFSAPKPQTSPSPKPATKKEPALLELEGKKWRVENQENVSNLVIDDTELKQVAYIYKCVNTTLQIKGKINSITVDNCKKLGLVFDDVVGIVEIINSRDVKVQVMGKVPTISINKTDGCHAYLSKNSLDCEIVSAKSSEMNVLIPTEGGDFNEFPVPEQFKTLWNGQKLVTTVTEIAG
B5: the binding entry was “binds”.

B6: synaptotagmin 4 (mouse retina) (protein, UniProt P40749 1-425)
chain: MAPITTSRVEFDEIPTVVGIFSAFGLVFTVSLFAWICCQRRSAKSNKTPPYKFVHVLKGVDIYPENLSSKKKFGGDDKSEVKGKAALPNLSLHLDLEKRDLNGNFPKANPKAGSSSDLENVTPKLFTETEKEANSPESLKSSTSLTSEEKQEKLGTLFLSLEYNFEKKAFVVNIKEAQGLPAMDEQSMTSDPYIKMTILPEKKHRVKTRVLRKTLDPVFDETFTFYGIPYPHIQELSLHFTVLSFDRFSRDDVIGEVLIPLSGIELSDGKMLMTREIIKRNAKKSSGRGELLVSLCYQSTTNTLTVVVLKARHLPKSDVSGLSDPYVKVNLYHAKKRISKKKTHVKKCTPNAVFNELFVFDIPCESLEEISVEFLVLDSERGSRNEVIGRLVLGATAEGSGGGHWKEICDFPRRQIAKWHMLCDG
Consider B6, for which the binding entry is “binds”.
